PubChem BioAssay AID1053208 – Peter MacCallum Cancer Centre – 2014
The deposit covers about 17,000 reagents; this is a random part of them. Over the whole deposit, 788 (4.7%) are marked active. 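Calls rest on z-score classes alone; an extra cut-off of viability at most 70% of control was not applied to them.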 Unmarked entries are inactive. Reagents against one gene are numbered here. Some reagents were tested in more than one well and are listed for each.

Assay: 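Synthetic lethal interactions between gene loss and doxorubicin in osteosarcoma cells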 (primary screen)
Cells: mouse osteosarcoma cells, early-passage culture from an engineered mouse model of fibroblastic bone tumour
Reagent: siRNA pool against mouse genes, 40 nM
Time to read-out: about 120 h (48 h before drug, then 72 h with drug)
Challenge: doxorubicin 100 nM for 72 h, roughly 30-40% inhibitory dose
Read-out: 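Viability read as ATP luminescence after 72 h of 100 nM doxorubicin or none, duplicate wells averaged, scaled to non-targeting siRNA, then expressed as robust z-scores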
Reading the numbers: viability z-score with doxorubicin and doxorubicin viability vs non-targeting: higher = more viable cells under doxorubicin; viability z-score without drug: higher = more viable cells with knock-down alone; z-score of drug to no-drug ratio: higher = less drug sensitisation by knock-down
Call rule: 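a pool counts as active when its viability z-score with doxorubicin is -2 or below and its z-score without drug lies between -2 and 2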

The opening 3 entries, ahead of the listing:
gene	reagent	combined z-score class	viability z-score with doxorubicin	viability z-score without drug	z-score of drug to no-drug ratio	doxorubicin viability vs non-targeting
Scaf11	1	low cell count without drug only	-1.35	-2.02	0.11	0.82
Ccm2l	1	no change with or without drug	0.22	-0.17	0.45	0.96
Calu	1	no change with or without drug	1.69	0.51	1.46	1.09

Results, from the start:
gene	reagent	combined z-score class	viability z-score with doxorubicin	viability z-score without drug	z-score of drug to no-drug ratio	doxorubicin viability vs non-targeting
Scaf11	1	low cell count without drug only	-1.35	-2.02	0.11	0.82
Ccm2l	1	no change with or without drug	0.22	-0.17	0.45	0.96
Calu	1	no change with or without drug	1.69	0.51	1.46	1.09
AI837181	1	no change with or without drug	-1.01	-1.01	-0.22	0.85
Tgs1	1	no change with or without drug	0	0.84	-0.45	0.94
Abcc8	1	no change with or without drug	-1.35	0	-1.35	0.82
Scg5	1	no change with or without drug	-0.22	-1.01	0.56	0.92
Dpyd	1	no change with or without drug	0.22	-1.52	1.57	0.96
Calb1	1	no change with or without drug	0.11	-0.34	0.45	0.95
Msgn1	1	low cell count with and without drug	-8.77	-13.8	2.81	0.16
Slc37a2	1	no change with or without drug	-0.9	0	-0.79	0.86
Tmem120a	1	no change with or without drug	-0.22	-1.18	0.79	0.92
Tmem26	1	no change with or without drug	-1.46	-0.84	-0.9	0.81
Cdk4	1	no change with or without drug	0.67	-0.17	0.9	1
Txndc5	1	no change with or without drug	0.11	-0.34	0.45	0.95
Nuak2	1	no change with or without drug	0.22	0	0.34	0.96
Nuak2	1	no change with or without drug	0.67	0.34	0.56	1
Snx18	1	no change with or without drug	0	-0.17	0.22	0.94
F830045P16Rik	1	no change with or without drug	0.56	0.51	0.34	0.99
Glrx3	1	no change with or without drug	1.46	0.67	1.12	1.07
Pabpc2	1	no change with or without drug	-1.12	-0.51	-0.79	0.84
B330016D10Rik	1	high cell count with doxorubicin only	2.36	1.18	1.69	1.15
Rnf169	1	no change with or without drug	0.9	-0.34	1.35	1.02
Cltrn	1	no change with or without drug	1.01	0.84	0.56	1.03
1700092C17Rik	1	no change with or without drug	0.9	0.51	0.67	1.02
Cuedc1	1	no change with or without drug	-0.9	-0.51	-0.56	0.86
Ndp	1	no change with or without drug	1.57	0.84	1.12	1.08
Clec14a	1	low cell count with doxorubicin only (active)	-2.02	0.17	-2.14	0.76
Ndufa9	1	no change with or without drug	0.22	-1.85	1.8	0.96
Lgr4	1	no change with or without drug	-0.67	-0.17	-0.45	0.88
Chrnb4	1	no change with or without drug	-1.8	-0.84	-1.24	0.78
Matn2	1	no change with or without drug	-0.45	0.17	-0.45	0.9
Clcn2	1	no change with or without drug	0.79	0.67	0.45	1.01
Ccr2	1	no change with or without drug	0.11	-1.18	1.12	0.95
Sox7	1	no change with or without drug	1.01	-0.51	1.57	1.03
Map10	1	no change with or without drug	0.45	-0.84	1.24	0.98
Socs7	1	no change with or without drug	0.11	0.17	0.11	0.95
Tnni3k	1	no change with or without drug	0.22	0.84	-0.22	0.96
Oasl1	1	no change with or without drug	-0.22	1.01	-0.79	0.92
Scamp4	1	low cell count with doxorubicin only (active)	-2.02	1.18	-2.59	0.76
Ptgfrn	1	no change with or without drug	-0.22	0	-0.11	0.92
Ebf4	1	no change with or without drug	-0.22	0.17	-0.22	0.92
Tm4sf4	1	no change with or without drug	-0.9	-0.51	-0.56	0.86
Arl4d	1	no change with or without drug	-1.35	-0.84	-0.79	0.82
Arl4d	2	no change with or without drug	0	-1.85	1.57	0.94
Nup88	1	low cell count with and without drug	-6.63	-6.74	-3.82	0.35
Sec24d	1	no change with or without drug	1.46	0.51	1.24	1.07
Or5d20	1	low cell count with and without drug	-3.37	-4.22	-0.79	0.64
Or9s23	1	low cell count with doxorubicin only (active)	-2.25	-1.52	-1.35	0.74
Or5an6	1	no change with or without drug	0	-0.84	0.67	0.94
